Patent US20250230248A1
No constants are given. Whether binding was seen depends on the method and setting. Some entries that bind do so weakly or less than the wild type.

Amino acid sequences for entries named in this document (tags omitted). Residues count along the entry.
UniProt P08581, residues 25-932: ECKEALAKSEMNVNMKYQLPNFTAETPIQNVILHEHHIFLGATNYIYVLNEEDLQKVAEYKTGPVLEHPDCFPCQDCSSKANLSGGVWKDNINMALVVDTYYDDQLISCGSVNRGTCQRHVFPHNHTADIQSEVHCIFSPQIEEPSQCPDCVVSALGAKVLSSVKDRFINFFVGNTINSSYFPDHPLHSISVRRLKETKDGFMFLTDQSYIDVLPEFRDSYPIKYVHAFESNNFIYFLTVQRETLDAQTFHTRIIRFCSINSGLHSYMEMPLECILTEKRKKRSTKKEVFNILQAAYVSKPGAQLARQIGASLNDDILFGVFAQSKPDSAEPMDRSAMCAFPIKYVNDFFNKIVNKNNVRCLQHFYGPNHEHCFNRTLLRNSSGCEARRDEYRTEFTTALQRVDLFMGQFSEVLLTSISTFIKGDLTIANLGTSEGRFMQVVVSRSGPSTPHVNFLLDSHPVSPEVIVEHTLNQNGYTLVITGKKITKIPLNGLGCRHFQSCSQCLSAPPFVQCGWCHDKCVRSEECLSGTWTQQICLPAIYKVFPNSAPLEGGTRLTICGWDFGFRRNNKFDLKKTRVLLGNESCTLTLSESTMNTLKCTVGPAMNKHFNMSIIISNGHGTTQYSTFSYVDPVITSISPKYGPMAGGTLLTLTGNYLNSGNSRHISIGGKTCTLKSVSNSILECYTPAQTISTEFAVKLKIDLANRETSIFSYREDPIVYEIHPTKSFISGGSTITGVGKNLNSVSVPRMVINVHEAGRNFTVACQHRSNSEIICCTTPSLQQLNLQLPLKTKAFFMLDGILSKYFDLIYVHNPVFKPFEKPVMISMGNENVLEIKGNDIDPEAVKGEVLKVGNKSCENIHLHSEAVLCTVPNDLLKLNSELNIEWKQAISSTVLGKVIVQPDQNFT

Biological target: cMET extracellular domain (ECD) (UniProt P08581)
Assay: ELISA, FIG. 3A

B1: TV1 (antibody, V domains shown)
VH: QVQLVQSGAEVKKPGSSVKVSCKASGYIFTAYTMHWVRQAPGQGLEWMGGIKPNNGLANYAQKFQGRVTITADESTSTAYMELSSLRSEDTAVYYCARSEITTEFDYWGQGTLVTVSS
VL: DIVMTQSPDSLAVSLGERATINCKSSESVDSYANSFLHWYQQKPGQPPKLLIYRASTRESGVPDRFSGSGSGTDFTLTISSLQAEDVAVYYCQQSKEDPLTFGGGTKVEIK
With B1 the binding was “binds”.

B2: TV4 (antibody, V domains shown)
VH: QVQLQESGPGLVKPSGTLSLTCAVSGYIFTAYTMHWVRQPPGKGLEWIGGIKPNNGLANYNPSLKSRATLSVDKSKNQASMKLSSVTAADTAVYYCARSEITTEFDYWGQGTLVTVSS
VL: DIQMTQSPSSLSASVGDRVTITCRASESVDSYANSFMHWYQQKPGKAPKLLIYRASNLESGVPSRFSGSGSGTDFTLTISSLQPEDFATYYCQQSKEDPLTFGGGTKVEIK
In the case of B2, the binding is reported as “binds”.
